PubChem BioAssay AID504774 – Drosophila RNAi Screening Center – 2011

Purpose: 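Fly genes whose loss alters survival after alkylation damage to DNA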 (primary screen)
System: Drosophila Kc167 cells
Reagent: long dsRNA against Drosophila genes, about 0.25 µg dsRNA per well
Timing: about 6 days: 3 days knock-down, then 3 days with or without MMS
Conditions: methyl methanesulphonate 0.004% (w/v) for 3 days after knock-down
Measured: 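ATP-dependent luminescence as a measure of live cells in MMS-exposed wells, quantile normalised within each plate, with replicate values also given as a mean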
Reading the numbers: mean viability with MMS: higher = more surviving cells after MMS
The deposit covers about 23,000 reagents; below is a random part of those that have a named target and a result. 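Values are quantile-normalised luminescence on an arbitrary scale; higher means more cells surviving MMS.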 A plus sign joins genes that one reagent is predicted to hit. Further read-outs or replicates are left out here. Reagent sequences are not shown.

Silencing of CoRest [DRSC19881] resulted in: mean viability with MMS 3.38e6.
After knock-down of CoRest [DRSC21626] the results were mean viability with MMS 3.71e6.
Knock-down of CoRest [DRSC22305] gave: mean viability with MMS 2.86e6.
CG14313 [DRSC14792] gave mean viability with MMS 3.45e6.
After knock-down of CG34199 [DRSC05867], the screen gave mean viability with MMS 3.29e6.
Depletion of dome [DRSC19583] gave: mean viability with MMS 3.35e6.
Against CG14186 [DRSC10185], the entry reads mean viability with MMS 3.72e6.
After knock-down of CG9021 [DRSC03128], the record shows mean viability with MMS 3.60e6.
Against SmydA-1 [DRSC07200] the deposit lists mean viability with MMS 3.72e6.
Knock-down of Cpr72Ea [DRSC10451] gave: mean viability with MMS 3.57e6.
With knock-down of Jon99Fii + Jon99Cii + Jon99Ciii + 1 more [DRSC15298], the screen gave mean viability with MMS 3.69e6.
CG12239 [DRSC17832] showed mean viability with MMS 2.93e6.
For lncRNA:CR32730 [DRSC22957], the values are mean viability with MMS 3.51e6.
Polr2F [DRSC12366] gave mean viability with MMS 2.99e6.

Part of the list above, reformatted.
gene	DRSC id	mean viability with MMS
CoRest	DRSC21626	3.71e6
CoRest	DRSC22305	2.86e6
